The campaign covered roughly 310,000 compounds. About 17,000 (5.5%) were called active. The shares of active, inactive and inconclusive entries below differ from those in the screen. The call rests on the fitted dose curve; in most records, active means well fitted inhibition curve with a large enough effect; inconclusive means small, poorly fitted or top-dose-only effect, or effect the other way; inactive means no such curve, though single readings can be large or run the other way. Potencies of inconclusive entries are doubtful fits and often do not repeat.
What follows are molecules tested against Nuclear receptor ROR-gamma (Mus musculus) (UniProt P51450) (assay: qHTS for inhibitors of ROR gamma transcriptional activity). Conditions: Drosophila S2 Gal4-RORgamma UAS-luciferase reporter, 20 h; series mostly up to 53.6 µM.
Method in brief: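 Drosophila S2 cells stably expressing Gal4-DBD/mouse RORγ fusion under metallothionein promoter plus UAS-luciferase; compound 1 h, then 700 uM CuSO4 induction for 20 h at ambient temperature; inhibition read as reduced luminescence.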
Further: nearly all actives have a fitted effect of over 60% in size.
Potency means the concentration at half of the fitted maximal effect.

The chains behind the UniProt entries cited, without tags or fusion partners. Where a name states a change or a piece, a line headed by the entry shows the natural chain unless it says otherwise.
UniProt P51450: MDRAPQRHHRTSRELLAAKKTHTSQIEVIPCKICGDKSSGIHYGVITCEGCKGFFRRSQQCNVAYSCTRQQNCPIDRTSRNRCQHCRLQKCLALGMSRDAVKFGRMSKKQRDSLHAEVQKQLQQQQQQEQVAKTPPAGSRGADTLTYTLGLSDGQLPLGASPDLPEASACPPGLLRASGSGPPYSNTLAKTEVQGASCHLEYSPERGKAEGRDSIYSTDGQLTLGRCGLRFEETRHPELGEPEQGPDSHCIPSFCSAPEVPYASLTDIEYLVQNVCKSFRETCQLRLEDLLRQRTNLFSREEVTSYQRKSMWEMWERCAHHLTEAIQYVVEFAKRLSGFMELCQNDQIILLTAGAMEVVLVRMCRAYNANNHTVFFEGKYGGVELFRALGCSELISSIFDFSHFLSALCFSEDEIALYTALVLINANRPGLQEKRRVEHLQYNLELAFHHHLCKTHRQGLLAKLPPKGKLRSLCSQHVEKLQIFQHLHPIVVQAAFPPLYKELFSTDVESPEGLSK

Potency, active:
O=C(CCCn1c(=S)[nH]c2cc3c(cc2c1=O)OCO3)N1CCN(c2ccccc2F)CC1 12.6 µM, O=C1c2ccccc2-c2onc3ccc(NCCCn4ccnc4)c1c23 12.6 µM, CCn1c(Cc2ccc(OC)cc2)nc2ccccc21 11.2 µM, Cc1coc2c(O)cc3c(c12)OC1(N2CCCCC2)C(=O)NCCCC31 (configuration not stated) 12.6 µM, O=C(N/N=C/c1ccc(N2CCOCC2)o1)c1cccc(C(F)(F)F)c1 6.31 µM, COc1cc(C(=O)Oc2ccccc2/C=N/NC(=O)c2ccc(C)c(Cl)c2)cc(OC)c1OC 5.01 µM, O=C(NCc1ccccc1)c1ccc(/C=N/O)nc1 5.01 µM, CN(C)CCCN(C(=O)CCOc1ccccc1)c1nc2c(F)cccc2s1 8.91 µM, COc1ccc(CCNC(=S)Nc2cccc(C)c2C)cc1 3.98 µM, COc1ccc(-c2cc(C(F)(F)F)nc(-n3ccnc3C)n2)cc1 11.2 µM, CN(C(=O)CCc1nnc(CCCCc2ccccc2)o1)C1CC(C)(C)NC(C)(C)C1 2 µM, CCOC(=O)c1c(NC(=O)C2=C(C)NC(=S)NC2c2ccc(CC)cc2)sc(C)c1C (configuration not stated) 3.55 µM, COc1ccccc1NC(=S)NCCc1ccc(F)cc1 5.01 µM, COc1ccccc1NC(=S)NC1CCCCC1 4.47 µM, S=c1nc[nH]c2c1[nH]c1ccccc12 11.2 µM, Cc1ccc(C(c2nnnn2C(C)(C)C)N(Cc2ccco2)Cc2cccs2)cc1 (configuration not stated) 10 µM, CC(=O)N(C)c1ccc(NC(=S)NC(=O)/C=C/c2ccco2)cc1 10 µM, CC12CC(c3ccccc3O1)C(/C(N)=N/NC(=O)c1ccc(F)cc1)C(=O)N2 (configuration not stated) 4.47 µM, Cc1ccc(/C=N/Nc2ccc(C(=O)O)cc2)o1 0.316 µM

Potency, inactive:
COc1cc(NC(=O)c2cc(-c3ccc(C)cc3)on2)cc(OC)c1OC, CCN1CCN(CCCNC(=O)c2cc3cc4ccc(OC)cc4nc3o2)CC1, Cc1ccc(/C=N/NC(=O)Cc2ccc(O)cc2)s1, COc1ccc(-c2csc(N(Cc3ccccc3)C(=O)COc3ccc(Cl)cc3)n2)cc1, COc1ccc(NC(=O)CN(C)CC(=O)Nc2ccc(Cl)cc2F)cc1, Nc1[nH]ncc1N=Nc1ccc(Cl)cc1, COc1ccc(C(=O)NC(C)c2nccs2)cc1OC1CCN(C(C)C)CC1 (configuration not stated), Cc1ccc(S(=O)(=O)NC(=O)c2ccc(-c3ccc(-c4ccccc4)cc3)o2)c(C)c1, COc1ccc(C2=Nn3c(nnc3-c3ccc(OC)c(OC)c3)SC2)c(OC)c1, COc1ccc(-c2cc3c(=O)n(CC(=O)NCc4ccc(C)cc4)ncn3n2)cc1, Cc1cc(/C=C2/C(=O)N(C)C(=S)N2C)ccc1N1CCCC1, CCOC(=O)NC(=O)/C(N=Nc1cccc(C(F)(F)F)c1)=C(\C)O, O=S(=O)(/N=C(\Sc1ccccc1)c1ccccc1)c1ccc(Cl)cc1, O=C(CN1CCN(C(=O)C2CCCO2)CC1)Nc1c(Cl)cccc1Cl (configuration not stated), CCc1ccc(N(CC(=O)NC2CC2)S(=O)(=O)c2ccc(C)cc2)cc1, COc1cc(OC)cc(C(=O)Nc2sc3c(c2C(N)=O)CCC3)c1, CCOc1ccc(NC(=O)Nc2nnc(CC)s2)cc1, Cc1ccc(-c2c(C)nn3c(N4CCOCC4)cc(C)nc23)cc1, O=c1cc(Cl)c(-c2ccccc2)nn1Cc1ccc(Cl)cc1, COc1cccc(/C=N/NC(=O)c2nc(-c3ccccc3)cc(-c3ccccc3)n2)c1O, Cc1cccc(N/N=C/c2ccccc2O)c1, Cc1ccc(OCC(=O)N/N=C\c2c(C)n(C)c3ccccc23)c([N+](=O)[O-])c1, COc1ccc(-c2c(C3C4C=CCCC4(C)C(=O)N3Cc3ccccc3)ccc3ccccc23)cc1 (configuration not stated)

Potency, inconclusive:
CCOc1ccc(NC(=S)NC(=O)c2c(Br)cnn2C)c([N+](=O)[O-])c1 22.4 µM [inhibitor, single point], CN(c1ccccc1)S(=O)(=O)c1cccc(NC(=O)CSc2ncn[nH]2)c1 11.2 µM [activator, partial curve], Nc1ccc2nc3c(=O)n(CCc4ccccc4)c(=O)[nH]c3nc2c1 17.8 µM [activator, single point], Oc1ccc(Br)cc1C=Nc1ccc2c3c(cccc13)CC2 35.5 µM [inhibitor, single point], O=C(O)CCn1cc(/C=C\C(=O)c2ccc(Cl)cc2)c(-c2cccc(Br)c2)n1 8.91 µM [activator, partial curve], O=C(c1csc(Nc2ccccc2Cl)n1)N1CCCC1 1.12 µM [activator, full curve, poor fit], COc1ccc(C(=O)NC(=C(Cl)Cl)S(=O)(=O)c2ccc(C)cc2)cc1 35.5 µM [inhibitor, single point], [O-][n+]1c2c(c3c4non(O)c4ccc31)CCCC2 35.5 µM [inhibitor, single point], CCC1C(=NO)C(CC)C(c2ccccc2)NC1c1ccccc1 (configuration not stated) 35.5 µM [inhibitor, single point], CC(C)Oc1ccc(N2C(=O)c3ccccc3C2=O)cc1 1.26 µM [activator, partial curve, poor fit], C/C(Nc1ccccc1)=C(/C#N)C(N)=O 6.31 µM [inhibitor, single point], COc1ccc(NS(=O)(=O)/C=C/c2ccccc2)cc1 3.16 µM [activator, single point], COc1ccc(-n2c(C)c(C(C)=O)c3cc(O)ccc32)cc1 35.5 µM [inhibitor, single point], O=C(NCC(Cl)c1ccc2ccccc2c1)c1c(F)cccc1F (configuration not stated) 7.94 µM [activator, partial curve, poor fit], CNC(=O)CSc1nnnn1-c1cc(C)ccc1C 0.112 µM [activator, full curve, poor fit], O=C1NC(=Nc2ccccc2)S/C1=C\c1cccn1-c1ccccc1 11.2 µM [inhibitor, single point], CCn1nnc(NC(=O)c2sc3ccccc3c2Cl)n1 35.5 µM [inhibitor, single point], COc1ccccc1/C=C/C(=O)Nc1cccnc1 11.2 µM [activator, single point], NNc1nc2c(Cl)cccc2s1 25.1 µM [inhibitor, single point], CCn1c(C)nc2cc(C(=O)NNC(=S)NC(=O)c3ccccc3)ccc21 11.2 µM [inhibitor, single point], CC(=O)Nc1ccc(S(=O)(=O)NNC(=O)COc2ccc(C(C)(C)C)cc2)cc1 14.1 µM [activator, single point], CCN(CC)S(=O)(=O)c1ccc(-c2nnc(SCC(=O)N3c4ccccc4CC3C)n2CC)cc1 (configuration not stated) 35.5 µM [activator, single point], O=C(NC1CCCCCC1)c1ccc(=O)n(Cc2ccccc2)n1 25.1 µM [activator, single point], CCc1cccc2c(/C=N/NC(=O)c3cccc(S(=O)(=O)Nc4ccccc4Cl)c3)c[nH]c12 20 µM [inhibitor, single point], CC(C)(C)N(Cc1ccccc1)C(=O)CCc1ccccc1 35.5 µM [inhibitor, single point], Cc1c(C(=O)NNC(=S)NCc2ccc(Cl)cc2)oc2ccccc12 17.8 µM [inhibitor, single point], O=C(CCC(=O)N1CCCC1)N1CCCC1 0.0355 µM [inhibitor, full curve, poor fit], CC(C)(C)C(=O)N1CCN(c2ccc([N+](=O)[O-])cc2-n2cccc2)CC1 17.8 µM [activator, partial curve, poor fit], O=C(NC1CCN(Cc2ccc(Cl)cc2Cl)CC1)c1ccccc1 35.5 µM [activator, single point], Nc1nonc1C(=O)NCCNCc1ccccc1OCc1ccc(F)cc1 12.6 µM [activator, single point], CCc1ccccc1N(C(=O)c1snc(C(N)=O)c1N)C(C(=O)NCC1CCCO1)c1c[nH]c2ccccc12 (configuration not stated) 17.8 µM [activator, single point], CN(CC(=O)OCC(=O)c1c(N)n(C)c(=O)n(C)c1=O)S(=O)(=O)c1ccc(Cl)cc1 11.2 µM [activator, partial curve], Cc1ccc(/C=C/C(=O)NC(=S)Nc2ccccc2C(=O)NC2CCCCC2)cc1 7.08 µM [inhibitor, partial curve], O=[N+]([O-])c1cc(S(=O)(=O)Nc2ccccc2)ccc1NCc1ccccc1 4.47 µM [activator, partial curve], O=C(CNc1ccc2ccccc2c1)N/N=C/C=C/c1cccc([N+](=O)[O-])c1 15.8 µM [inhibitor, single point]

Source: PubChem BioAssay AID2551 (National Center for Advancing Translational Sciences (NCATS), 2010)
